Results as given in paper PMC7395068, “The evolution of strategies to minimise the risk of human drug-induced liver injury (DILI) in drug discovery and development” (Archives of Toxicology, 2020).
Read-outs that look alike come from different tables or passages of the source.

Tests used:
[1] = tested on: hLiMTs; experiment: Combined HCI (HCS) and cellular ATP 3D assay in hLiMTs
[2] = tested on: HepaRG spheroids; experiment: Combined HCI (HCS) and cellular ATP 3D assay in HepaRG spheroids

Row | Structure (SMILES) | First responding feature (HCS endpoint MEC) ([1]; hLiMT's) | First responding feature (HCS endpoint MEC) ([2]; hepaRG spheroid) | also measured
1 | Nc1cc(N2CCCCC2)nc(N)[n+]1[O-] [minoxidil] | MMP |  | 
2 | NC(=O)N1c2ccccc2C=Cc2ccccc21 [carbamazepine, reference compound] | GSH | GSH | 
3 | O=C(O)Cc1ccccc1Nc1c(Cl)cccc1Cl [diclofenac] |  | GSH | 
4 | N[C@@H]1[C@H]2CN(c3nc4c(cc3F)c(=O)c(C(=O)O)cn4-c3ccc(F)cc3F)C[C@@H]12 [trovafloxacin] |  | GSH | 
5 | Cc1c(C)c2c(c(C)c1O)CCC(C)(COc1ccc(CC3SC(=O)NC3=O)cc1)O2 (stereo not drawn) [troglitazone, reference compound] |  | MMP | 
6 | CCN(CC)CCNC(=O)c1c(C)[nH]c(/C=C2\C(=O)Nc3ccc(F)cc32)c1C [sunitinib] | GSH | GSH | 
7 | CCN(CC)C(=O)/C(C#N)=C/c1cc(O)c(O)c([N+](=O)[O-])c1 [entacapone] | GSH | GSH | 
8 | CCc1ccc(CCOc2ccc(CC3SC(=O)NC3=O)cc2)nc1 (stereo not drawn) [pioglitazone] | GSH | GSH | 
9 | CO[C@@]12[C@H](COC(N)=O)C3=C(C(=O)C(C)=C(N)C3=O)N1C[C@@H]1N[C@@H]12 [mitomycin C] |  |  | First responding feature (HCS endpoint MEC) [2]: GSH
10 | Nc1c2c(nc3ccccc13)CCCC2 [tacrine, reference compound] |  | GSH | 
11 | CN(C)CCC(c1ccc(Cl)cc1)c1ccccn1 (stereo not drawn) [chlorpheniramine] | GSH |  | 
12 | [H]/N=C(/N)N[C@H]1[C@H](O)[C@@H](O)[C@H](O[C@@H]2O[C@@H](C)[C@](O)(C=O)[C@H]2O[C@@H]2O[C@@H](CO)[C@H](O)[C@@H](O)[C@@H]2NC)[C@@H](N/C(N)=N\[H])[C@@H]1O [streptomycin, reference compound] |  | GSH | 
13 | CC(COc1ccccc1)N(CCCl)Cc1ccccc1 (stereo not drawn) [phenoxybenzamine] | GSH |  | 
14 | O=P1(N(CCCl)CCCl)NCCCO1 (stereo not drawn) [cyclophosphamide, reference compound] |  |  | First responding feature (HCS endpoint MEC) [1]: GSH
15 | CS(=O)(=O)CCNCc1ccc(-c2ccc3ncnc(Nc4ccc(OCc5cccc(F)c5)c(Cl)c4)c3c2)o1 [lapatinib] |  | GSH | 
16 | Cc1ccc(C(=O)c2cc(O)c(O)c([N+](=O)[O-])c2)cc1 [tolcapone, reference compound] | GSH | GSH | 
17 | CCc1nn(CCCN2CCN(c3cccc(Cl)c3)CC2)c(=O)n1CCOc1ccccc1 [nefazodone, reference compound] | GSH |  | 
18 | O=c1[nH]c(=O)n([C@@H]2O[C@H](CO)[C@@H](O)[C@@H]2F)cc1I [fialuridine] |  | GSH | 

Row | Structure (SMILES) | First responding feature (HCS endpoint MEC) ([1]; hLiMT's) | First responding feature (HCS endpoint MEC) ([2]; hepaRG spheroid) | also measured
19 | CCN(CC)CC#CCOC(=O)C(O)(c1ccccc1)C1CCCCC1 (stereo not drawn) [oxybutynin] | GSH |  | 
20 | Cc1ccc(N(CC2=NCCN2)c2cccc(O)c2)cc1 [phentolamine] | SIZE | GSH | 
21 | O=C1CN(/N=C/c2ccc([N+](=O)[O-])o2)C(=O)N1 [nitrofurantoin] |  | MMP | 
22 | N[C@@H](Cc1cc(I)c(Oc2ccc(O)c(I)c2)c(I)c1)C(=O)O [liothyronine] |  | SIZE | 
23 | CN(Cc1cnc2nc(N)nc(N)c2n1)c1ccc(C(=O)N[C@@H](CCC(=O)O)C(=O)O)cc1 [methotrexate, reference compound] | GSH | GSH | 
24 | COc1ccccc1Oc1c(NS(=O)(=O)c2ccc(C(C)(C)C)cc2)nc(-c2ncccn2)nc1OCCO [bosentan] | MMP | MMP | 
25 | Cn1cnc([N+](=O)[O-])c1Sc1ncnc2nc[nH]c12 [azathioprine] |  | MMP | 
26 | CC(=O)N1CCN(c2ccc(OCC3COC(Cn4ccnc4)(c4ccc(Cl)cc4Cl)O3)cc2)CC1 (stereo not drawn) [ketoconazole, reference compound] | GSH |  | 
27 | Cc1cc2c(cc1CC(=O)c1sccc1S(=O)(=O)Nc1onc(C)c1Cl)OCO2 [sitaxsentan] | MMP | MMP | 
28 | CN1CCN(C2=Nc3cc(Cl)ccc3Nc3ccccc32)CC1 [clozapine] | GSH |  | 
29 | COc1ccc2c(c1)c(CC(=O)O)c(C)n2C(=O)c1ccc(Cl)cc1 [indomethacin] | MMP |  | 
30 | CNC1(C)C2CCC(C2)C1(C)C (stereo not drawn) [mecamylamine] |  | MMP | 
31 | COc1cc2c(cc1OC)C(=O)C(CC1CCN(Cc3ccccc3)CC1)C2 (stereo not drawn) [donepezil] | MMP |  | 
32 | NCCCC(O)(P(=O)(O)O)P(=O)(O)O [alendronate] |  | GSH | 
33 | C1CCC(C(CC2CCCCN2)C2CCCCC2)CC1 (stereo not drawn) [perhexiline] | MMP |  | 
34 | O=C1CN(/N=C/c2ccc(-c3ccc([N+](=O)[O-])cc3)o2)C(O)=N1 [dantrolene] | MMP |  | 
35 | CC(=O)Oc1ccccc1C(=O)O [acetylsalicylic acid] | GSH |  | 
36 | CCCC(CCC)C(=O)O [valproic acid] | GSH |  | 
